PubChem BioAssay AID504467 (National Center for Advancing Translational Sciences (NCATS), 2011)
In all, about 330,000 compounds went through this assay and about 7,700 (2.3%) were called active. This list was built around the results that the source calls inconclusive (neither active nor inactive); the mix of calls is not that of the screen. The call rests on the fitted dose curve; in most records, active means well fitted inhibition curve with a large enough effect; inconclusive means small, poorly fitted or top-dose-only effect, or effect the other way; inactive means flat fitted curve, though single readings scatter. Potencies of inconclusive entries are doubtful fits and often do not repeat.

experiment: qHTS screen for small molecules that inhibit ELG1-dependent DNA repair in human embryonic kidney (HEK293T) cells expressing luciferase-tagged ELG1; conditions: HEK293T ELG1-luciferase reporter, luminescence, 16 h, DNA damage induced by 5-fluorouridine; series mostly up to 46.1 µM; further: nearly all actives have a fitted effect of over 55% in size
Procedure, shortened: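 Reporter activity after DNA damage by 5-fluorouridine is monitored. Compound-treated cells incubate 16 hr at 37 °C, then ONE-Glo is added for 30 min before luminescence reading.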
Potency means the concentration at half of the fitted maximal effect.

Structure (SMILES)	Potency
COc1ccc(C2CC(O)(c3ccccc3)Oc3cc(OC)ccc32)cc1 (stereo not drawn)	inactive
COc1ccc(CC(=O)NCC(C)(C)N2CCOCC2)cc1	inactive
C=CCn1c(=O)c2ccccc2n2c(SCc3nc(N)nc(Nc4ccccc4C)n3)nnc12	inconclusive: 25.9 µM [inhibitor, partial curve, poor fit]
CCOC(=O)c1sc2nc(N3CCOCC3)c3c(c2c1N)CCC3	inconclusive: 18.4 µM [inhibitor, single point]
CCc1ccc2nc(NC(=O)CCCc3cccs3)sc2c1	inconclusive: 16.4 µM [activator, partial curve]
O=C(CSc1nc2ccccc2o1)c1ccc2c(c1)OCCO2	inconclusive: 11.2 µM [activator, partial curve, poor fit]
O=C(COC(=O)C1CCC1)Nc1ccccc1Sc1ccccc1	inconclusive: 0.058 µM [inhibitor, full curve, poor fit]
CCn1ccnc1CN(C)Cc1nc(-c2cccc(Cl)c2)no1	inconclusive: 16.4 µM [activator, single point]
COc1ccc(CCNC(=O)c2ccc(OC)c(OC)c2)cc1OC	inactive
Nc1nc(CSCc2ccccc2)nc(N2CCOCC2)n1	inconclusive: 18.4 µM [activator, partial curve]
CCOC(=O)c1ccc(NC(=O)c2ccc(CO)c(C(=O)NC3CCN(C(=O)OCC)CC3)c2)cc1	inconclusive: 14.6 µM [inhibitor, partial curve]
NC(=O)N(N)c1nc(N2CCCC2)nc(N2CCCC2)n1	inactive
Cc1ccc(C)c(Nc2ncccc2C(=O)NCc2cccs2)c1	inconclusive: 25.9 µM [inhibitor, partial curve, poor fit]
CCOc1ccccc1N1CCN(Cc2ccc(OC)c(OC)c2OC)CC1	inconclusive: 10.3 µM [inhibitor, partial curve]
CCC(C)N(C(=O)CSc1ncnc2sccc12)C1CCS(=O)(=O)C1 (stereo not drawn)	inactive
NC(=O)CN(c1ccc([N+](=O)[O-])cc1)S(=O)(=O)c1ccccc1	inactive
CC(C)C[C@H](NC(=O)c1[nH]cnc1C(=O)N[C@@H](C)c1ccccc1)C(=O)OCc1ccccc1	inconclusive: 14.6 µM [inhibitor, partial curve]
Cc1cc(NC(=O)c2cccc(S(=O)(=O)N(C)C)c2)n(-c2ccccn2)n1	inconclusive: 16.4 µM [inhibitor, partial curve]
CCCCSc1nsc(NC(C)=O)n1	inconclusive: 16.4 µM [activator, partial curve]
CC(=O)c1cc(C)ccc1OC(=O)CN1C(=O)c2ccccc2C1=O	inconclusive: 0.411 µM [inhibitor, partial curve, poor fit]
O=C(CC(=O)N/N=C\c1ccccc1)NCCc1ccccc1	inactive
O=c1c2[nH]c3cccc(Cl)c3c2ncn1Cc1ccco1	inconclusive: 13 µM [activator, partial curve, poor fit]
COc1cc(C(C)=O)ccc1OCC(O)CNCC1(N2CCCCC2)CCCCC1 (stereo not drawn)	inconclusive: 14.6 µM [activator, partial curve, poor fit]
Cc1cc(N2C(=O)C3C4CC(c5ccccc5)C(C4)C3C2=O)no1 (stereo not drawn)	inactive
Cc1cc(C(=O)O[C@H]2[C@H](Cc3ccccc3)NS(=O)(=O)[C@H]3C[C@@H]4C=C[C@]23O4)ccc1[N+](=O)[O-]	inactive

Structure (SMILES)	Potency
CC(=O)Nc1ccc(S(=O)(=O)NCCc2cc3c(C)ccc(C)c3[nH]c2=O)cc1	inactive
COc1ccc(-n2c(/C=C3\C(=O)N(C)c4ccccc43)nc3ccccc3c2=O)cc1	inactive
CC(=O)Nc1ccc(S(=O)(=O)Nc2nc3ccccc3nc2Nc2ccc(S(N)(=O)=O)cc2)cc1	inconclusive: 29.1 µM [activator, single point]
CCOC(=O)C1(CC2CC2)CCN(Cc2ccc(O)c(Cl)c2)CC1	inactive
COC(=O)c1ccc(N2CCOCC2)c(NC(=O)Nc2cccc(OC)c2)c1	inconclusive: 18.4 µM [inhibitor, partial curve, poor fit]
O=C(Nn1cnc2ccccc2c1=O)c1cccc(Cl)c1	inconclusive: 20.6 µM [activator, partial curve]
CN1CCN(S(=O)(=O)c2ccc(N3CCc4ccccc4C3)nc2)CC1	inactive
COc1ccc(NC(=O)c2cc(-c3ccc(OC)c(OC)c3)on2)cc1OC	inactive
COc1ccc(NC(=O)CN(C)S(=O)(=O)c2ccc3c(c2)OCCO3)c2ncccc12	inconclusive: 35.5 µM [inhibitor, single point]
CCc1cc(-c2n[nH]c(C)c2-c2nc3ccccc3s2)c(O)cc1OCC(=O)NN	inactive
Cc1ccc(S(=O)(=O)Nc2ncnc3sccc23)cc1C	inactive
CN(C)CCCNc1cc(Cl)c(S(=O)(=O)N2CCCCC2)cc1C(=O)O	inactive
CSc1ccccc1C(=O)NCCSc1ccccc1	inconclusive: 18.4 µM [activator, single point]
COc1cccc(C(=O)Nc2c3c(nn2-c2cccc(C)c2C)CS(=O)(=O)C3)c1OC	inconclusive: 13 µM [inhibitor, single point]
CCOC(=O)COn1c(=O)c(-c2cccs2)[n+]([O-])c2ccccc21	inconclusive: 16.4 µM [activator, single point]
Cc1cccn2c(=O)c(/C=N/O)c(NCc3ccccc3)nc12	inconclusive: 23.1 µM [activator, single point]
O=C(CSc1nnc(-c2ccccc2)o1)N1CCCC1	inconclusive: 20.6 µM [activator, partial curve]
Cc1ccc(S(=O)(=O)NCCN=C(CN2CCCC2)NS(=O)(=O)c2ccc(C)cc2)cc1	inactive
O=CC1=C(N2CCOCC2)/C(=C/c2ccc(Cl)cc2)CC1	inconclusive: 23.1 µM [inhibitor, single point]
CN1CCC(N(C)C(=O)c2cccc(S(=O)(=O)N3CCOCC3)c2)CC1	inconclusive: 23.1 µM [activator, partial curve, poor fit]
Cc1[nH]c2ccc(C(=O)N3CCCCC3)cc2c1C	inconclusive: 10.3 µM [activator, partial curve]
Cc1c(C(=O)NCCSCc2c(Cl)cccc2Cl)cccc1[N+](=O)[O-]	inconclusive: 29.1 µM [inhibitor, single point]
COc1ccc(-c2n[nH]c(C)c2-c2ccccc2OC)c(O)c1	inconclusive: 9.2 µM [inhibitor, partial curve]
Cc1c(C(=O)O)[nH]c2c1C(=O)CC(c1ccc(Cl)cc1)C2 (stereo not drawn)	inactive
CC(=O)c1csc(-c2cccc(-c3nc4ccc(Cl)cn4c3NC3CCCCC3)c2)c1	inconclusive: 25.1 µM [inhibitor, single point]

Structure (SMILES)	Potency
Cc1ccc(C(=O)Nc2sc3c(c2C(=O)O)CCC(C)C3)o1 (stereo not drawn)	inconclusive: 18.3 µM [activator, single point]
COc1ccccc1/C=C/C(=O)OCC(=O)NCc1ccco1	inactive
O=C1CCCC2=C1C1c3ccccc3C(=O)N1c1ccc(C(=O)c3ccccc3)cc1N2 (stereo not drawn)	active: 16.4 µM
O=C1C=C(NCc2ccc3c(c2)OCO3)CC(c2ccccc2)C1 (stereo not drawn)	inactive
COc1cccc(N2CCN(C3C4CC5CC(C4)CC3C5)CC2)c1 (stereo not drawn)	inconclusive: 16.4 µM [activator, single point]
Cc1ccc(SC(=O)c2c([N+](=O)[O-])c(C)nn2C)cc1	inactive
Cc1ccccc1-c1nc(-c2cccnc2)no1	inconclusive: 12.6 µM [activator, partial curve]
NNC(=S)Nc1ccc(S(=O)(=O)N2CCOCC2)cc1	inactive
CCOC(=O)CNC(=O)CSc1nnc(NC(=O)c2ccc3c(c2)OCO3)s1	inconclusive: 6.51 µM [activator, partial curve]
Cc1cc(C(=O)COc2ncnc3sccc23)c(C)n1C	inconclusive: 9.2 µM [activator, partial curve]
CCOc1ccc(/C=N/Nc2ccc(Cl)nn2)c(O)c1	inactive
Cn1c(-c2ccc(F)cc2)cnc1NCc1cc2c(cc1[N+](=O)[O-])OCO2	inconclusive: 29.1 µM [inhibitor, partial curve, poor fit]
CC(C)CC(=O)N1CCN(c2ccc([N+](=O)[O-])cc2Cl)CC1	inconclusive: 29.1 µM [inhibitor, single point]
Cc1ccc(O)c(-c2cc(C(F)(F)C(F)F)[nH]n2)c1	inactive
CC1=C(C)C(c2ccccc2)NC(=S)N1 (stereo not drawn)	inactive
Cc1ccc(CNCCC2=CCCCC2)cc1	inactive
CC(C)n1c(SCC(=O)NC2CCCCC2)nnc1-c1ccco1	inactive
O=C(CN1CCN(S(=O)(=O)c2ccccc2)CC1)Nc1ccc([N+](=O)[O-])cc1	active: 20.6 µM
CCn1c(SCC(=O)Nc2cccc(C)n2)nnc1-c1ccco1	inconclusive: 5.17 µM [inhibitor, partial curve]
CCOc1ccc(NC(=O)c2ccccc2O)cc1	inconclusive: 2.59 µM [activator, partial curve, poor fit]
CCOc1ccccc1NC(=O)N1CCc2ccccc2C1	inactive
Cc1ccc(-c2cc(C(=O)N/N=C/c3c(C)nn(-c4ccccc4)c3C)[nH]n2)cc1	inconclusive: 29.1 µM [inhibitor, single point]
CCOC(=O)C1(Cc2cccc(OC)c2)CCN(Cc2cccn2-c2ccccn2)CC1	inconclusive: 18.3 µM [inhibitor, partial curve]

Random excerpt: four records from the list
Structure (SMILES)	Potency
Cc1ccc(O)c(-c2cc(C(F)(F)C(F)F)[nH]n2)c1	inactive
CCOC(=O)C1(Cc2cccc(OC)c2)CCN(Cc2cccn2-c2ccccn2)CC1	inconclusive: 18.3 µM [inhibitor, partial curve]
Cc1ccccc1-c1nc(-c2cccnc2)no1	inconclusive: 12.6 µM [activator, partial curve]
CC(C)n1c(SCC(=O)NC2CCCCC2)nnc1-c1ccco1	inactive

Not a retest: an excerpt of the list.
Structure (SMILES)	Potency
Cc1ccc(O)c(-c2cc(C(F)(F)C(F)F)[nH]n2)c1	inactive
CC1=C(C)C(c2ccccc2)NC(=S)N1 (stereo not drawn)	inactive
